According to patent publication US20250243243A1, “DISRUPTION OF SONIC HEDGEHOG-SURF4 INTERACTION FOR CANCER TREATMENT” (The Hong Kong University of Science and Technology, priority 2022, published 2025):
No constants are given. Whether binding was seen depends on the method and setting. In cells and extracts the contact can be indirect.

Amino acid sequences for entries named in this document (tags omitted). A change or cut given only in a name is not applied to a line headed by its entry. Residues count along the entry.
UniProt P01344, residues 25-180: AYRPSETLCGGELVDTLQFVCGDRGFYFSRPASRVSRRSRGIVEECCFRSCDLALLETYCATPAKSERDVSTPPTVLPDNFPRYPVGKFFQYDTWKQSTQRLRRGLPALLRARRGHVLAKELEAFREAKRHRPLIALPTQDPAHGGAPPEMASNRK
UniProt O15260: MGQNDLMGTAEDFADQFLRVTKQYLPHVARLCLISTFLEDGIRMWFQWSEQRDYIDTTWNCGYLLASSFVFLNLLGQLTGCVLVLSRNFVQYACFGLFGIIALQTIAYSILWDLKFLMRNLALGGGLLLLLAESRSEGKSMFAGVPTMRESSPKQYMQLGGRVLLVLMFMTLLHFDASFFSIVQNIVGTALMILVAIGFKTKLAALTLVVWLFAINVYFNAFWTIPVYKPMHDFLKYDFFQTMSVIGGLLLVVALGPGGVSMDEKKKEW

Assays:
IGF2-HA (human) = IGF2-HA (human) (UniProt P01344); experiment: co-immunoprecipitation on anti-HA beads after DSP cross-linking, HEK293T cells, anti-Myc immunoblot
SURF4-HA (human) = SURF4-HA (human) (UniProt O15260); experiment: GST pull-down from lysate of HEK293T cells expressing SURF4-HA, anti-HA immunoblot

Row | Substance | binding (IGF2-HA (human)) | binding (SURF4-HA (human))
1 | SURF4-Myc (from UniProt O15260 2-269) (receptor) | no binding | –
2 | GST (from UniProt P08515 1-218) | – | no binding
